Results deposited as PubChem BioAssay AID1159599 (NIAID, 2016)
Test: 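Effect of knocking down TLR signalling components on Tnf reporter after LPS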. Cells: mouse RAW264.7 G9 macrophage reporter clone cells. Knock-down reagent: single siRNA against mouse genes. Duration: 48 to 72 h after siRNA transfection, LPS for the last 16 h. Treatment: LPS (Salmonella minnesota R595), 16 h before fixation; dose not stated. Measurement: 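Nuclear mCherry from a Tnf promoter reporter imaged after LPS, background removed, robust z-score from per-plate median and MAD, averaged over replicates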. Direction: Tnf reporter z-score: higher = stronger Tnf promoter reporter signal after LPS. Rule for the call: 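Called active if the mean z-score over replicates passes 1.5 in either direction, up or down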. Calls: active = strong change either way; inactive = little change.
Here is an unselected part of 756 reagents tested. Of all reagents, 130 (17%) got an active call. 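Calls are two-sided: actives include siRNAs that raised the Tnf reporter as well as ones that lowered it.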 A number with no mark means an inactive call. Reagents against one gene are numbered here. No sequences are given here. Not given: the amount of reagent.

gene knocked down	reagent no.	Tnf reporter z-score, replicate mean
Mapk11	1	0.696
Mapk11	2	-1.42
Mapk11	3	1.21
Mapk11	4	-0.333
Mapk11	5	-1.58 (active)
Mapk11	6	-0.258
Tnfaip3	1	1.28
Tnfaip3	2	-0.375
Tnfaip3	3	-0.327
Tnfaip3	4	0.312
Tnfaip3	5	1.14
Tnfaip3	6	1.25
Irak3	1	-0.77
Irak3	2	-0.52
Irak3	3	-0.0364
Irak3	4	-0.0172
Irak3	5	-0.919
Irak3	6	-1.55 (active)
Il1b	1	0.346
Il1b	2	-1.56 (active)
Il1b	3	-0.805
Il1b	4	-0.27
Il1b	5	1
Il1b	6	0.384
Rac1	1	0.618
Rac1	2	0.549
Rac1	3	0.147
Rac1	4	-0.219
Rac1	5	-0.947
Rac1	6	-0.299
Mapk12	1	0.313
Mapk12	2	-0.314
Mapk12	3	-1.11
Mapk12	4	2.15 (active)
Mapk12	5	-0.398
Mapk12	6	-1.37
Btk	1	-0.181
Btk	2	-1.44
Btk	3	-1.03
Btk	4	-0.15
Btk	5	-1.12
Btk	6	-0.0537
Map3k14	1	-0.0235
Map3k14	2	1.35
Map3k14	3	-1.29
Map3k14	4	0.195
Map3k14	5	-2.48 (active)
Map3k14	6	-0.847
Peli1	1	1.46
Peli1	2	0.476
Peli1	3	0.268
Peli1	4	2.59 (active)
Peli1	5	-1.22
Peli1	6	-0.644
Pik3r3	1	-0.865
Pik3r3	2	-0.429
Pik3r3	3	-0.779
Pik3r3	4	-1.25
Pik3r3	5	-0.0829
Pik3r3	6	-1.18
Ikbkb	1	-0.832
Ikbkb	2	-2.01 (active)
Ikbkb	3	-1.37
Ikbkb	4	-0.502
Ikbkb	5	-1.26
Ikbkb	6	-0.878
Cd180	1	-0.000347
Cd180	2	0.341
Cd180	3	-0.675
Cd180	4	-1.31
Cd180	5	-1.57 (active)
Cd180	6	-0.295
Map2k6	1	-0.454
Map2k6	2	0.0323
Map2k6	3	-0.469
Map2k6	4	1.66 (active)
Map2k6	5	-0.93
Map2k6	6	0.911
Irak2	1	-0.279
Irak2	2	-0.937
Irak2	3	-1.52 (active)
Irak2	4	-0.182
Irak2	5	-1.79 (active)
Irak2	6	-1.63 (active)
Ticam1	1	-0.895
Ticam1	2	1.4
Ticam1	3	-0.407
Ticam1	4	-1.08
Ticam1	5	-1.19
Ticam1	6	-1.76 (active)
Ets1	1	-0.451
Ets1	2	0.823
Ets1	3	-0.418
Ets1	4	0.944
Ets1	5	-1.74 (active)
Ets1	6	-0.745
Tlr4	1	-0.841
Tlr4	2	-1.01
Tlr4	3	-1.63 (active)
Tlr4	4	-1.14
Tlr4	5	-0.527
Tlr4	6	-1.54 (active)
Mapkapk2	1	-2.35 (active)
Mapkapk2	2	0.572
Mapkapk2	3	-0.304
Mapkapk2	4	-1.17
Mapkapk2	5	1.81 (active)
Mapkapk2	6	-0.42
Il1rl1	1	1.91 (active)
Il1rl1	2	-1.36
Il1rl1	3	-0.273
Il1rl1	4	1.02
Il1rl1	5	-1.7 (active)
Il1rl1	6	0.0207

An excerpt taken from the entries so far:
gene knocked down	reagent no.	Tnf reporter z-score, replicate mean
Mapkapk2	1	-2.35 (active)
Mapkapk2	2	0.572
Mapkapk2	3	-0.304
Mapkapk2	4	-1.17
Mapkapk2	5	1.81 (active)
Mapkapk2	6	-0.42
Il1rl1	1	1.91 (active)
Il1rl1	2	-1.36
Il1rl1	3	-0.273
Il1rl1	4	1.02
Il1rl1	5	-1.7 (active)
